Laboratory results as given in publication PMC12040169 (PLOS Biology, 2025).
The list shows a part of the results.

Test system: T1, CTL2-GFP (C. trachomatis L2/434/Bu, GFP-expressing)
T1 construct: L2/434/Bu, GFP-expressing
Set-up: species or system HeLa; Intracellular C. trachomatis growth in HeLa cells, bulk GFP fluorescence relative to DMSO
Conditions: bulk GFP, single well; 28.5 h, 10 µM; inhibitor

Row | SMILES | % of control remaining
1 | CCN(CC)Cc1cc([N+](=O)[O-])cc2c1OCOC2 [CBK296613] | 127.511%
2 | O=C(C1=C(O)C(=O)N(CCCn2ccnc2)C1c1ccccc1)c1cccs1 (centres unmarked) [CBK264484] | 123.917%
3 | COc1ccc(S(=O)(=O)Nc2ccsc2C(=O)N2CCN(C)CC2)cc1OC [CBK004627] | 111.063%
4 | O=C(COc1cccc2c1CCNC2=O)Nc1ccccc1 [CBK287730] | 123.513%
5 | CN1CCN(c2cc(-c3ccncc3)nc3ccccc23)CC1 [CBK050976B] | 124.203%
6 | O=C1CNC(=O)N1CC(O)Cn1c2ccc(Cl)cc2c2cc(Cl)ccc21 (centres unmarked) [CBK265792] | 114.629%
7 | CC(=O)Nc1ccc(OCC(O)CNC2CCCC2)cc1 (centres unmarked) [CBK267857C] | 167.861%
8 | O=C(O)CC(NC(=O)OCc1ccccc1)c1ccccc1 (centres unmarked) [CBK265351] | 97.252%
9 | COc1ncc(-c2nccnc2NCc2cccc([N+](=O)[O-])c2)c(OC)n1 [CBK036680] | 122.145%
10 | COC(=O)c1ccc(CO)nc1 [CBK261376C] | 100%
11 | O=C(c1ccc2c(c1)N(Cc1ccccc1Cl)C(=O)CO2)c1cccs1 [CBK286411] | 118.227%
12 | O=C1N[C@]2(CCc3ccccc31)CN(CC1CC=CCC1)C[C@H]2CO (some centres unmarked) [CBK284794] | 179.724%
13 | Cn1cc2c(n1)CC1CCC2N1C(=O)c1ccc(F)c(F)c1 (centres unmarked) [CBK281691] | 116.111%
14 | CCCn1c(C)c(C)n2c3c(=O)n(CCC(=O)OC)c(=O)n(C)c3nc12 [CBK306048] | 84.0884%
15 | Cc1nc(C(=O)NC2CCN(C)CC2)ccc1C(=O)O [CBK304262] | 105.728%
16 | CCNC(=O)C1(Cc2ccccc2-c2ccccc2)CCN(C(=O)c2cccc(F)c2)CC1 [CBK285689] | 120.393%
17 | O=C(O)CSc1nc(Nc2ccccc2)nc(N2CCOCC2)n1 [CBK269023] | 110.798%
18 | Cn1ccc(CN2CCOC(c3nc(C(C)(C)C)cs3)C2)cc1=O (centres unmarked) [CBK305771] | 115.322%
19 | CC(C)(C)c1cc(CCC(=O)NNC(=O)c2ccccc2Cl)cc(C(C)(C)C)c1O [CBK268391] | 56.397%
20 | CCOc1ccccc1NC(=O)CN(C)S(=O)(=O)c1ccc2ccccc2c1 [CBK266874] | 151.422%
21 | C#CCN(C)CC[C@@H]1CC[C@H](O)[C@@H](C(=O)N2CCOCC2)O1 [CBK288723] | 136.769%
22 | O=C(O)C1CCCCC1C(=O)NCCN1CCCCC1 (centres unmarked) [CBK287031] | 117.49%
23 | O=C(Nc1ccc(S(=O)(=O)N2CCCC2)cc1)c1ccc(COc2ccc3c(c2)CCC3)o1 [CBK265847] | 119.458%
24 | NC(=O)c1cccc(-c2cnc(N)c(N3CCC[C@@H]3CO)n2)c1 [CBK063458] | 125.207%
25 | COc1ccccc1/C=N/N=C(/Nc1ccc(C)cc1)c1nc2ccccc2s1 [CBK265051] | 97.2143%

From no. 14 up to 16, as listed above:
Row | SMILES | % of control remaining
14 | CCCn1c(C)c(C)n2c3c(=O)n(CCC(=O)OC)c(=O)n(C)c3nc12 [CBK306048] | 84.0884%
15 | Cc1nc(C(=O)NC2CCN(C)CC2)ccc1C(=O)O [CBK304262] | 105.728%
16 | CCNC(=O)C1(Cc2ccccc2-c2ccccc2)CCN(C(=O)c2cccc(F)c2)CC1 [CBK285689] | 120.393%

More entries follow:

Row | SMILES | % of control remaining
26 | CC(=O)N1CC[C@H]2NC(=O)CNC(=O)C3(CCCC[C@H]2C1)CCN(C(=O)CN1CCCCC1)CC3 [CBK292120] | 132.628%
27 | Cc1ccn2cc(CNC(=O)N(C)CCc3scnc3C)nc2c1 [CBK307379] | 135.444%
28 | O=C(NC(c1ccccc1)c1ccccc1)c1ccc(Cl)cc1[N+](=O)[O-] [CBK262452] | 120.333%
29 | CC(O)CN(CC(C)O)CC1CC2C=CC1C2 (centres unmarked) [CBK261896] | 116.655%
30 | CC(C)Nc1cc(Sc2ccccc2N)ncn1 [CBK093729] | 106.261%
31 | CCC(c1ccc(F)cc1)N(C)C(=O)Cn1cccc(C(=O)NC2CCCCC2)c1=O (centres unmarked) [CBK286114] | 97.9142%
32 | O=C(N[C@H]1CCN2C(=O)c3cc(Br)ccc3NC(=O)[C@H]12)c1cccc(F)c1 [CBK289334] | 134.932%
33 | N#Cc1cccnc1N1CC2COCCC2(C(=O)N2CCC=C(F)C2)C1 (centres unmarked) [CBK304744] | 128.706%
34 | O=C(Cn1cnc2c(cnn2-c2ccccc2)c1=O)NCc1ccco1 [CBK287531] | 146.524%
35 | CCN(CC(=O)NCc1ccc(Cl)cc1)S(=O)(=O)N1CCCCCC1 [CBK305733] | 109.337%
36 | OCCN1CCC2(CC1)CN(CCO)c1ccccc12 [CBK126759] | 108.909%
37 | CCCn1nc(C)c(-c2cncn2CCCN2CCCCC2)c1C [CBK281496] | 131.079%
38 | CN1C(c2ccccc2)=NO[C@]1(C)c1ccccc1 [CBK027170] | 124.429%
39 | CN1CCN(NC(=O)COc2cccc(C(F)(F)F)c2)CC1 [CBK268124] | 150.97%
40 | CC(=O)NC(c1ccccn1)C1CCCN(C(=O)C2CC2C)C1 (centres unmarked) [CBK285032] | 124.716%
41 | COc1ccc(C(=O)N2CCC3(CCCN(C(=O)CC4NC(=O)NC4=O)C3)C2)cc1OC (centres unmarked) [CBK137082] | 122.686%
42 | O=C1CN(C(=O)Nc2ccc3[nH]ccc3c2)CCN1 [CBK155858] | 108.633%
43 | COc1cc(/C=C2\C(=O)N(c3ccccc3Cl)N=C2c2ccccc2)ccc1O [CBK265698] | 133.836%
44 | COc1ccc2c(c1)C(C)CC(C)(C)N2C(=O)CSc1nnc(-c2ccco2)n1C (centres unmarked) [CBK059169] | 141.887%
45 | C=CCn1ncc(CN(C)Cc2nc3ccccc3[nH]2)c1C [CBK283169] | 97.9157%
46 | CCCc1ccc(S(=O)(=O)n2ccn(-c3ccc4c(c3)OCO4)c2=O)cc1 [CBK106634] | 88.3455%
47 | CCN(CC)CCN1CCN(c2cncc(-c3ccc(F)cc3F)n2)CC1 [CBK065668] | 159.035%
48 | CCN(CC)C(=O)CN1CCC(Oc2cncc(OCCN3CCOCC3)n2)C1 (centres unmarked) [CBK084490] | 116.199%
49 | Cc1cc(C)n(CC(=O)N2CCCC2c2ccc(C)c(C)c2)c(=O)n1 (centres unmarked) [CBK282991] | 132.866%
50 | COC(=O)c1ccc(N2CCN(Cc3nc(C)c(C)o3)C(C)C2)cc1 (centres unmarked) [CBK304903] | 107.484%
